PubChem BioAssay AID493246 | Drosophila RNAi Screening Center – 2011

Test: 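Genome-wide search for dsRNAs that reduce cell number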 (primary screen)
Cell system: Drosophila Kc and S2R+ cells
Knock-down reagent: long dsRNA against Drosophila genes
Measured: 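Raw, unnormalised count of remaining cells in each well; per-plate z-scores of cell number underlie the calls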
Reading the numbers: Kc cell number and S2R+ cell number: higher = more cells remaining
Rule for the call: 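Counted as a hit if cell number falls by a z-score of at least 3 within its plate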
In all, the deposit lists about 21,000 reagents; this is a random part of those with a known target gene and a result. In the full data, 429 (2%) are marked active. 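Values are raw and not normalised between plates; calls rest on per-plate z-scores that were not deposited.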 A number with no mark means an inactive call. The record does not give: the amount of reagent, the time to read-out.

no.	Target gene	amplicon	Kc cell number, rep 1	Kc cell number, rep 2	S2R+ cell number, rep 1	S2R+ cell number, rep 2
1	tfc (triforce)	DRSC07953	1.50e6	1.45e6	9.75e5	1.11e6
2	tfc (triforce)	DRSC07954	1.42e6	1.39e6	9.61e5	1.14e6
3	tfc (triforce)	DRSC08626	1.40e6	1.38e6	1.11e6	1.12e6
4	CG6290	DRSC19979	1.64e6	1.65e6	1.12e6	1.21e6
5	CG13457	DRSC10004	1.33e6	1.34e6	1.31e6	1.42e6
6	CG12056	DRSC17796	5.65e5		8.57e5	
7	Muc96D (Mucin 96D)	DRSC13709	1.32e6	1.32e6	1.02e6	1.13e6
8	CG7768	DRSC10914	1.45e6	1.50e6	1.24e6	1.27e6
9	CG34266	DRSC08323	1.18e6	1.17e6	1.09e6	1.14e6
10	CCAP (Crustacean cardioactive peptide)	DRSC15674	1.59e6	1.61e6	1.02e6	1.11e6
11	Rpn5 (Regulatory particle non-ATPase 5)	DRSC12367	1.21e6	1.30e6	1.01e6	1.09e6
12	CG2861	DRSC18229	1.57e6	1.58e6	1.11e6	1.21e6
13	CG10814	DRSC06004	1.30e6	1.39e6	1.09e6	1.10e6
14	Lcp3 (Larval cuticle protein 3)	DRSC07457	1.56e6	1.65e6	1.27e6	1.37e6
15	CG9759	DRSC16558	1.53e6	1.66e6	1.37e6	1.57e6
16	Ide (Insulin degrading metalloproteinase)	DRSC11867	1.55e6	1.61e6	1.22e6	1.31e6
17	Ssu72 (Ssu72 CTD phosphatase)	DRSC19572	1.56e6	1.65e6	1.19e6	1.31e6
18	Csl4	DRSC02944	1.64e6	1.77e6	1.38e6	1.46e6
19	CG5860	DRSC15896	1.25e6	1.41e6	1.21e6	1.29e6
20	Ciao1	DRSC06170	1.50e6	1.63e6	1.25e6	1.19e6
21	eIF4B (eukaryotic translation initiation factor 4B)	DRSC20983	1.54e6	1.43e6	9.94e5	1.09e6
22	CG10638	DRSC09762	1.79e6	1.76e6	1.40e6	1.57e6
23	fd102C (forkhead domain 102C)	DRSC17203	1.65e6	1.63e6	1.10e6	1.25e6
24	CG7724	DRSC10905	1.83e6	1.86e6	1.46e6	1.42e6
25	CG11398	DRSC18625	1.42e6	1.44e6	1.04e6	1.20e6
26	Or65a (Odorant receptor 65a)	DRSC08808	1.46e6	1.38e6	1.09e6	1.26e6

No new results follow: an excerpt of the list.
no.	Target gene	amplicon	Kc cell number, rep 1	Kc cell number, rep 2	S2R+ cell number, rep 1	S2R+ cell number, rep 2
21	eIF4B (eukaryotic translation initiation factor 4B)	DRSC20983	1.54e6	1.43e6	9.94e5	1.09e6
22	CG10638	DRSC09762	1.79e6	1.76e6	1.40e6	1.57e6
23	fd102C (forkhead domain 102C)	DRSC17203	1.65e6	1.63e6	1.10e6	1.25e6
24	CG7724	DRSC10905	1.83e6	1.86e6	1.46e6	1.42e6
25	CG11398	DRSC18625	1.42e6	1.44e6	1.04e6	1.20e6

The listing continues:
no.	Target gene	amplicon	Kc cell number, rep 1	Kc cell number, rep 2	S2R+ cell number, rep 1	S2R+ cell number, rep 2
27	Balat (Beta-alanine transporter)	DRSC06852	1.42e6	1.49e6	1.20e6	1.32e6
28	mRpL18 (mitochondrial ribosomal protein L18)	DRSC06142	1.77e6	1.70e6	1.13e6	1.28e6
29	CG18765	DRSC15392	1.41e6	1.43e6	1.26e6	1.31e6
30	CG11658	DRSC09852	1.43e6	1.47e6	1.16e6	1.26e6
31	Aldh-III (Aldehyde dehydrogenase type III)	DRSC06047	1.38e6	1.48e6	9.82e5	1.16e6
32	CG34214	DRSC04490	1.40e6	1.58e6	1.17e6	1.20e6
33	Mgat4a	DRSC09326	1.39e6	1.52e6	1.06e6	1.23e6
34	Mgat4a	DRSC11070	1.38e6	1.31e6	1.24e6	1.34e6
35	Trmt112 (tRNA methyltransferase subunit 11-2)	DRSC11685	1.95e6	1.72e6	1.48e6	1.61e6
36	Pcl (Polycomblike)	DRSC07503	1.28e6	1.36e6	1.15e6	1.24e6
37	rdo (reduced ocelli)	DRSC02452	1.28e6	1.37e6	1.23e6	1.24e6
38	Rae1	DRSC04577	7.91e5	1.08e6	8.59e5	7.44e5
39	RpL17 (Ribosomal protein L17)	DRSC18293	3.31e5		5.55e5	
40	scrt (scratch)	DRSC08736	1.25e6 (active)	1.27e6	4.55e5	5.62e5
